We go through one molecule from paper PMC8305194, “Structural, Mechanistic, and Functional Insights into an Arthrobacter nicotinovorans Molybdenum Hydroxylase Involved in Nicotine Degradation” (Molecules, 2021).

In experiment [1] the target is T1, Kdh large subunit KdhL (6-hydroxypseudooxynicotine 2-oxidoreductase / ketone dehydrogenase, large subunit) (Arthrobacter nicotinovorans) (UniProt Q933N0).
T1 sequence: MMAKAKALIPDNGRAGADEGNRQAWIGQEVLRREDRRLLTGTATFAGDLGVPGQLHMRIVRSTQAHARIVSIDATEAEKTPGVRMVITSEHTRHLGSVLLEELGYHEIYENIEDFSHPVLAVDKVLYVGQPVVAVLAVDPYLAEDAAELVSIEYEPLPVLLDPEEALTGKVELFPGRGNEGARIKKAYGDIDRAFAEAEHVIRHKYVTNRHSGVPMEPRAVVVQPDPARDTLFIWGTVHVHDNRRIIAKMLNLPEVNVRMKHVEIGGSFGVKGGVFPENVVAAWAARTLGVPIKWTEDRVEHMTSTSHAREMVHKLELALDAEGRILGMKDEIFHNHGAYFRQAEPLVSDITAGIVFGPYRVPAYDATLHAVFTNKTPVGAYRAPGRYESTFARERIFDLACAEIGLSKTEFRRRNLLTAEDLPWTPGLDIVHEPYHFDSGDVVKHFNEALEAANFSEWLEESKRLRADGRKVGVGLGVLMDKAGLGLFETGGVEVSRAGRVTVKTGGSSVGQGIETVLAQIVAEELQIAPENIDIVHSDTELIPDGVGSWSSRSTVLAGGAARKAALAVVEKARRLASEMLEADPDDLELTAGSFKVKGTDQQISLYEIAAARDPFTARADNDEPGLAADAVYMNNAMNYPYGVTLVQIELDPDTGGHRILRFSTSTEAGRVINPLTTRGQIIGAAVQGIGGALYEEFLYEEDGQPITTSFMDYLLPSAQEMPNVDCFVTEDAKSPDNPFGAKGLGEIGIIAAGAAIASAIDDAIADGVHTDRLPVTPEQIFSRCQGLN
In words: crystal structure; Kdh holoenzyme crystallised by hanging-drop vapor diffusion at 14 °C; 1% tryptone, 0.1 M Tris-HCl pH 8.0, 25% PEG 3350; space group P212121, two heterotrimers per asymmetric unit; 3.4 Å; both purified.

Experiment [2] has as its target T2, Kdh middle subunit KdhM (6-hydroxypseudooxynicotine 2-oxidoreductase / ketone dehydrogenase, middle subunit) (Arthrobacter nicotinovorans) (UniProt O87681).
T2 sequence: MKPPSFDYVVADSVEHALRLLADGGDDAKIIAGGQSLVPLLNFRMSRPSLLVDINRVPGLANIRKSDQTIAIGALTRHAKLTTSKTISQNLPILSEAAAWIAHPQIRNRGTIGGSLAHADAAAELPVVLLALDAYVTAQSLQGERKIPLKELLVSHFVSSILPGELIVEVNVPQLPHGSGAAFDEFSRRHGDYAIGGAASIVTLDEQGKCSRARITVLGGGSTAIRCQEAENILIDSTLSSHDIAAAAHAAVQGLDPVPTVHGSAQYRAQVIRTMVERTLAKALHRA
Described as above.

No constants are given. Whether binding was seen depends on the method and setting. Some binding calls cover weakened binding; strength is not graded here.

B1: Kdh small subunit KdhS (6-hydroxypseudooxynicotine 2-oxidoreductase / ketone dehydrogenase, small subunit) (enzyme, UniProt O87682 1-160)
chain: MNAFRLTVEVNGVTHATDVEPRRLLADFLRDDLHLRGTRVGCEHGVCGSCTVLLDGQPVRSCTVLAVQANNSRIETVESLQKDGQLHPLQRSFSKCHALQCGFCTSGFLMTLKPLYDDEDVTLDATSAREAISGNICRCTGYQQIVEATVDAFHCRDHND
With B1, the binding result in experiment [1] and in experiment [2] was “binds” each time.
